The series in a line: general procedure: Fmoc solid-phase peptide synthesis; Rink amide resin; dicyclohexyl-dicarbodiimide/hydroxybenzotriazole. The following applies: whole synthesis, 214 nm.

Experimental findings from patent US20040185510A1 (priority 1996, published 2004) are described below.

Non-standard residues stand in square brackets, D forms with d. No end group written: not given here. Nle = CCCC[C@H](N)C(=O)O

Take [dY]GDY[Nle]GW[Nle]DF-NH2: the “purity (crude or final not stated)” value stood at 97.8%.
